Taken from: PubChem BioAssay AID652272 (Drosophila RNAi Screening Center, 2013)

Aim: 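Genes whose knock-down decreases or increases Hedgehog reporter output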 (primary screen)
System: Drosophila clone 8 (Cl8) cells
Knock-down reagent: long dsRNA against Drosophila genes
Measured: 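Firefly light from a Hedgehog-responsive ptc promoter reporter and Renilla reference light, both read on a plate reader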
Direction: firefly Hh reporter signal: higher = more ptc reporter light; Renilla reference signal: higher = more Renilla control light
Hit rule: 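Hit when the z-score averaged over two replicates is under -2 or over +3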
Meaning of the calls: active = hit: reporter lowered or raised; inactive = not a hit
In all, the deposit lists about 21,000 reagents; below is an unselected part of those with a known target gene and a result. Of all reagents, 503 (2.4%) got an active call. 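Raw plate light values, not normalised; calls rest on replicate z-scores that were not deposited; hits include reporter decreases as well as increases.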 The numbers tell different reagents against one gene apart. The record does not give: the amount of reagent, the time to read-out.

For bnb, the values are firefly Hh reporter signal, replicate 1 = 1.25e5; firefly Hh reporter signal, replicate 2 = 1.14e5; Renilla reference signal, replicate 1 = 3079; Renilla reference signal, replicate 2 = 2967; inactive.
hwt #1 showed firefly Hh reporter signal, replicate 1 = 4.57e5; firefly Hh reporter signal, replicate 2 = 71940; Renilla reference signal, replicate 1 = 3472; Renilla reference signal, replicate 2 = 3472; inactive.
hwt #2 showed firefly Hh reporter signal, replicate 1 = 1.14e5; firefly Hh reporter signal, replicate 2 = 1.77e5; Renilla reference signal, replicate 1 = 3910; Renilla reference signal, replicate 2 = 6531; inactive.
CG33769 gave firefly Hh reporter signal, replicate 1 = 90602; firefly Hh reporter signal, replicate 2 = 94491; Renilla reference signal, replicate 1 = 3100; Renilla reference signal, replicate 2 = 1748; inactive.
CG6425 scored firefly Hh reporter signal, replicate 1 = 1.07e5; firefly Hh reporter signal, replicate 2 = 67560; Renilla reference signal, replicate 1 = 2613; Renilla reference signal, replicate 2 = 1589; inactive.
Against CG30192, the values are firefly Hh reporter signal, replicate 1 = 92614; firefly Hh reporter signal, replicate 2 = 2.83e5; Renilla reference signal, replicate 1 = 2402; Renilla reference signal, replicate 2 = 12633; inactive.
Ric scored firefly Hh reporter signal, replicate 1 = 85642; firefly Hh reporter signal, replicate 2 = 61120; Renilla reference signal, replicate 1 = 2419; Renilla reference signal, replicate 2 = 4540; inactive.
Nopp140 gave firefly Hh reporter signal, replicate 1 = 1.14e5; firefly Hh reporter signal, replicate 2 = 1.62e5; Renilla reference signal, replicate 1 = 4765; Renilla reference signal, replicate 2 = 28809; inactive.
CG8677 showed firefly Hh reporter signal, replicate 1 = 1.12e5; firefly Hh reporter signal, replicate 2 = 80464; Renilla reference signal, replicate 1 = 4512; Renilla reference signal, replicate 2 = 3350; inactive.
With knock-down of Ppt1, the record shows firefly Hh reporter signal, replicate 1 = 82163; firefly Hh reporter signal, replicate 2 = 2.15e5; Renilla reference signal, replicate 1 = 2182; Renilla reference signal, replicate 2 = 7281; inactive.
For CG13360 the deposit lists firefly Hh reporter signal, replicate 1 = 1.71e5; firefly Hh reporter signal, replicate 2 = 1.43e5; Renilla reference signal, replicate 1 = 3341; Renilla reference signal, replicate 2 = 5716; inactive.
Depletion of CG18744 resulted in: firefly Hh reporter signal, replicate 1 = 78437; firefly Hh reporter signal, replicate 2 = 1.08e5; Renilla reference signal, replicate 1 = 3520; Renilla reference signal, replicate 2 = 3245; inactive.
After knock-down of CG32111 (retired record), the record shows firefly Hh reporter signal, replicate 1 = 2.76e5; Renilla reference signal, replicate 1 = 6233; inactive.
Depletion of CG14309 resulted in: firefly Hh reporter signal, replicate 1 = 6.09e5; firefly Hh reporter signal, replicate 2 = 1.21e5; Renilla reference signal, replicate 1 = 30419; Renilla reference signal, replicate 2 = 3132; inactive.
With knock-down of CG42471 the results were firefly Hh reporter signal, replicate 1 = 5.96e5; firefly Hh reporter signal, replicate 2 = 2.70e5; Renilla reference signal, replicate 1 = 30296; Renilla reference signal, replicate 2 = 10656; inactive.
Knock-down of CG34376 #1 came out at: firefly Hh reporter signal, replicate 1 = 3.67e5; firefly Hh reporter signal, replicate 2 = 1.57e5; Renilla reference signal, replicate 1 = 22693; Renilla reference signal, replicate 2 = 416; inactive.
Depletion of CG34376 #2 came out at: firefly Hh reporter signal, replicate 1 = 5.15e5; firefly Hh reporter signal, replicate 2 = 1.54e5; Renilla reference signal, replicate 1 = 32716; Renilla reference signal, replicate 2 = 440; inactive.
With knock-down of CG34376 #3 the results were firefly Hh reporter signal, replicate 1 = 3.09e5; firefly Hh reporter signal, replicate 2 = 1.69e5; Renilla reference signal, replicate 1 = 17824; Renilla reference signal, replicate 2 = 423; inactive.
wac showed firefly Hh reporter signal, replicate 1 = 1.08e5; firefly Hh reporter signal, replicate 2 = 39546; Renilla reference signal, replicate 1 = 4149; Renilla reference signal, replicate 2 = 2240; inactive.
CG34006 (retired record) scored firefly Hh reporter signal, replicate 1 = 56235; firefly Hh reporter signal, replicate 2 = 2.42e5; Renilla reference signal, replicate 1 = 13158; Renilla reference signal, replicate 2 = 5813; inactive.
Silencing of mia resulted in: firefly Hh reporter signal, replicate 1 = 1.08e5; firefly Hh reporter signal, replicate 2 = 65768; Renilla reference signal, replicate 1 = 4140; Renilla reference signal, replicate 2 = 2600; inactive.

A stretch from the list above:
Nopp140 | firefly Hh reporter signal, replicate 1: 1.14e5; firefly Hh reporter signal, replicate 2: 1.62e5; Renilla reference signal, replicate 1: 4765; Renilla reference signal, replicate 2: 28809; activity call: inactive
CG8677 | firefly Hh reporter signal, replicate 1: 1.12e5; firefly Hh reporter signal, replicate 2: 80464; Renilla reference signal, replicate 1: 4512; Renilla reference signal, replicate 2: 3350; activity call: inactive
